The list shows a part of the results. Most values lie at the level of the controls, where differences are scatter.

Amino acid sequences for entries named in this document (tags omitted). A change or cut given only in a name is not applied to a line headed by its entry.
UniProt Q9HAN9, whole entry: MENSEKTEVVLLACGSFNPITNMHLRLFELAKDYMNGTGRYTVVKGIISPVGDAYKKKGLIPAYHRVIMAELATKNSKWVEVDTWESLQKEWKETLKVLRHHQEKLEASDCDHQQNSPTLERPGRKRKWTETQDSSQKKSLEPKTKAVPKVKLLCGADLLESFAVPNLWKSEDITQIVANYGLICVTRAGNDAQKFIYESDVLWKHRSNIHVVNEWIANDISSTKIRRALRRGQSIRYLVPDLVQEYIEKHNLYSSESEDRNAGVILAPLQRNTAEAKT
UniProt Q9H204: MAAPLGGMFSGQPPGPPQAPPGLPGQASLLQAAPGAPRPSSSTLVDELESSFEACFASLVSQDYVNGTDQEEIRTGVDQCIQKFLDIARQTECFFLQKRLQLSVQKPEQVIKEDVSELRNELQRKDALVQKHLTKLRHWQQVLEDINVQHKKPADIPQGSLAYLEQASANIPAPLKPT
UniProt Q9H611: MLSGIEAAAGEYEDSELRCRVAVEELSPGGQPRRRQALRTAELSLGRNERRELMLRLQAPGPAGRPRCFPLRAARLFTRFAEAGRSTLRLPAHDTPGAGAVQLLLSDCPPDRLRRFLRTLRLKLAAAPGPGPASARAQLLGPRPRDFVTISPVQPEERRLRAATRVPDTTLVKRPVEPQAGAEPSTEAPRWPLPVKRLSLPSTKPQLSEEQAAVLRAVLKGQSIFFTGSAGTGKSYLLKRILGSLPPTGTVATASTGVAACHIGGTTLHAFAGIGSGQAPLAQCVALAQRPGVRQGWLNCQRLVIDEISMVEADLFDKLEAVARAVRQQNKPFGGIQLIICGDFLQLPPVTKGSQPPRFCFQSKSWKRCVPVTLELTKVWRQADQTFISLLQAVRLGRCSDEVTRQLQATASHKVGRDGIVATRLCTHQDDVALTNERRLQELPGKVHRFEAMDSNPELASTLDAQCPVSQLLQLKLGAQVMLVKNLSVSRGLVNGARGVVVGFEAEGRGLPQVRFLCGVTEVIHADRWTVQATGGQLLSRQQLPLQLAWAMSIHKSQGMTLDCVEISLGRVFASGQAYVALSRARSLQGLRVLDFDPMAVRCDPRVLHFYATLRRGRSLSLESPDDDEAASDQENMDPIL
UniProt Q9H8N7: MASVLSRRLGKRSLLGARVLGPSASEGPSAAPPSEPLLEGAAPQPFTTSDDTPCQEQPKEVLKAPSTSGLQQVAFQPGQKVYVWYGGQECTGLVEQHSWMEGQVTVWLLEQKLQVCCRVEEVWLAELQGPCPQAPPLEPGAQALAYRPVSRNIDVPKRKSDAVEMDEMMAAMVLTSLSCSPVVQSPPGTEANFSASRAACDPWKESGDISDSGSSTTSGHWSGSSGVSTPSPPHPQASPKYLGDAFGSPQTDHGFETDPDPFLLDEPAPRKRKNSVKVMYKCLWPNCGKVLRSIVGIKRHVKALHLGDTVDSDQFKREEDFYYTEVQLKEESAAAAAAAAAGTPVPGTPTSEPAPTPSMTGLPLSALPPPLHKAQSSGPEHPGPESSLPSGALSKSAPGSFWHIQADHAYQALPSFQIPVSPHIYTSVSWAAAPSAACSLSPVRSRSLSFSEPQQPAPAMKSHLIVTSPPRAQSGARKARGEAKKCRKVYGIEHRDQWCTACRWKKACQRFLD
UniProt Q9H211: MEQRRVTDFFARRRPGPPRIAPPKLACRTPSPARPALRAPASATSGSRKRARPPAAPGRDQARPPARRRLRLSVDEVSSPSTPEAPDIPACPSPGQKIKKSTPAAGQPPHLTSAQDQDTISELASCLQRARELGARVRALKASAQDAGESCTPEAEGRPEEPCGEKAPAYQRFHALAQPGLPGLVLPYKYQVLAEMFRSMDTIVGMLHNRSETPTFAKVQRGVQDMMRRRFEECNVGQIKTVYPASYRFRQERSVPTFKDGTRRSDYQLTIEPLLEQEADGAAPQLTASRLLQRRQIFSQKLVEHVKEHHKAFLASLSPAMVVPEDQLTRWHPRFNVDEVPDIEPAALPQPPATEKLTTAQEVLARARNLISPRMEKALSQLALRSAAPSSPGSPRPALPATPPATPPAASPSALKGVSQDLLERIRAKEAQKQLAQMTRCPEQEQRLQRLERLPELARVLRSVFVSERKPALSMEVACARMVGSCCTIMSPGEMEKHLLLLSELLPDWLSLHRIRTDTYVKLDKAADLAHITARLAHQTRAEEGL
UniProt Q9H8W3: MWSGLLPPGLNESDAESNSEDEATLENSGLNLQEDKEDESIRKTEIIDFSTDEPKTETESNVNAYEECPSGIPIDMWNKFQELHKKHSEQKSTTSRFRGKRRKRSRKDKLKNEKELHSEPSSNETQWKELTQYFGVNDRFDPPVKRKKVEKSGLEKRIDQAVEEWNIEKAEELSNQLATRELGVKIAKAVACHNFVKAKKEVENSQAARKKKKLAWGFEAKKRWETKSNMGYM
UniProt Q9H7E9: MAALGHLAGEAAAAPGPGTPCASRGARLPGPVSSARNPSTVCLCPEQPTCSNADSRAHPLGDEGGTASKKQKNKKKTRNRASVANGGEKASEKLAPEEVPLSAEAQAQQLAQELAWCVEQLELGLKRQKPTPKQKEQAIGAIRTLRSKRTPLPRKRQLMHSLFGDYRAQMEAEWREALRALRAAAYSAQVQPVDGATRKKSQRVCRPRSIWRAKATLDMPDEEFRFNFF
UniProt Q9H6A9: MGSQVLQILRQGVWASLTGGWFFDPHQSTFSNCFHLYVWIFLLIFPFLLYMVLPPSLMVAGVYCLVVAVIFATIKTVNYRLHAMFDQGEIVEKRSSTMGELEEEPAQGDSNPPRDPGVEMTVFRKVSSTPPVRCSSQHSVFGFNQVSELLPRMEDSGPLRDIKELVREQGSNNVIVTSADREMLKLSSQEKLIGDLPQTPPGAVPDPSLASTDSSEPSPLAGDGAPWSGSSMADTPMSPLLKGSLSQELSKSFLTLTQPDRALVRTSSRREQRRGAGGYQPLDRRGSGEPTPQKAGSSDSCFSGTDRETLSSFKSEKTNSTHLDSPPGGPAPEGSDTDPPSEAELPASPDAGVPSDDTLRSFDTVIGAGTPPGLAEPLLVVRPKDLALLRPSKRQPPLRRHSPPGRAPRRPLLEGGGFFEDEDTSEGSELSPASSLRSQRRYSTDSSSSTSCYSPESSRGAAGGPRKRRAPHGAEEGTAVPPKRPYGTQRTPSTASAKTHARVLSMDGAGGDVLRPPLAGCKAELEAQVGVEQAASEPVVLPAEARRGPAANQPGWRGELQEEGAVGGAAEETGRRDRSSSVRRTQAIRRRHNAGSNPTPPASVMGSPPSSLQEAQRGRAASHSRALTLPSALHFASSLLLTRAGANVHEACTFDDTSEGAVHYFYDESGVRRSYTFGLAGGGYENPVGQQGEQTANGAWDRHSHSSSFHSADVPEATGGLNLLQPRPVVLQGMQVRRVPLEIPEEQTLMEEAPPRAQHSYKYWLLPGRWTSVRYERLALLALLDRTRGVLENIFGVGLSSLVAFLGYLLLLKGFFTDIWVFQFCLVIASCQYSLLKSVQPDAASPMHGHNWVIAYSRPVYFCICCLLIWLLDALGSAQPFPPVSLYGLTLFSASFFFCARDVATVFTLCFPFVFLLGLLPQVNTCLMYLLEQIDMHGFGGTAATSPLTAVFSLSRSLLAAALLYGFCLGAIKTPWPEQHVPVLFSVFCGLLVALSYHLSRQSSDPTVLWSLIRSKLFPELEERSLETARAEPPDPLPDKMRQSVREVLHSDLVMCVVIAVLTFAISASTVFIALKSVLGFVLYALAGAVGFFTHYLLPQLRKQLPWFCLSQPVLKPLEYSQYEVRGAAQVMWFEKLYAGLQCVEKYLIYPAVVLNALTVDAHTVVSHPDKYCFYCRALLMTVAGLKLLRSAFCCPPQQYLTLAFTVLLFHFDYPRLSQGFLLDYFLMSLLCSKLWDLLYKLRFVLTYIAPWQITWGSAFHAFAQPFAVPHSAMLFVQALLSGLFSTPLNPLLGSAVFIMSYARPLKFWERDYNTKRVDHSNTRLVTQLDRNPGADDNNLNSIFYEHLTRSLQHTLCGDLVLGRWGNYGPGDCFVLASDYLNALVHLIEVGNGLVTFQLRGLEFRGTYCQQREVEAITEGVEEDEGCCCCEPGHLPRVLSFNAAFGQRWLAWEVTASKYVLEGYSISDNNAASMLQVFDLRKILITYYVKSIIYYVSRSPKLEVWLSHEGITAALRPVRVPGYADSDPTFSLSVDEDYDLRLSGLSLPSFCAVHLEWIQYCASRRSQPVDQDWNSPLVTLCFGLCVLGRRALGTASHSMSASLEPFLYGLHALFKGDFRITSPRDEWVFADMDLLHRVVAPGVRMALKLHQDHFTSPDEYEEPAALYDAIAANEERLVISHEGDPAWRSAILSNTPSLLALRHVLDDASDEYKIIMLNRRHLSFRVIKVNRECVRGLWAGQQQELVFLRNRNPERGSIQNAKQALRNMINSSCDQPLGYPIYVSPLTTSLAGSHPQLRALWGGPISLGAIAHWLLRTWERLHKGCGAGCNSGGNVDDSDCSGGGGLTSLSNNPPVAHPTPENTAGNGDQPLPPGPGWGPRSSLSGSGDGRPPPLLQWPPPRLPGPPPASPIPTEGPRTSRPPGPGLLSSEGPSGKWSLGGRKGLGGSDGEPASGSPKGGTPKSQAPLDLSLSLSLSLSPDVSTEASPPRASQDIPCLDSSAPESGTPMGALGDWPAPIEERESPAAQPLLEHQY
UniProt Q9H992: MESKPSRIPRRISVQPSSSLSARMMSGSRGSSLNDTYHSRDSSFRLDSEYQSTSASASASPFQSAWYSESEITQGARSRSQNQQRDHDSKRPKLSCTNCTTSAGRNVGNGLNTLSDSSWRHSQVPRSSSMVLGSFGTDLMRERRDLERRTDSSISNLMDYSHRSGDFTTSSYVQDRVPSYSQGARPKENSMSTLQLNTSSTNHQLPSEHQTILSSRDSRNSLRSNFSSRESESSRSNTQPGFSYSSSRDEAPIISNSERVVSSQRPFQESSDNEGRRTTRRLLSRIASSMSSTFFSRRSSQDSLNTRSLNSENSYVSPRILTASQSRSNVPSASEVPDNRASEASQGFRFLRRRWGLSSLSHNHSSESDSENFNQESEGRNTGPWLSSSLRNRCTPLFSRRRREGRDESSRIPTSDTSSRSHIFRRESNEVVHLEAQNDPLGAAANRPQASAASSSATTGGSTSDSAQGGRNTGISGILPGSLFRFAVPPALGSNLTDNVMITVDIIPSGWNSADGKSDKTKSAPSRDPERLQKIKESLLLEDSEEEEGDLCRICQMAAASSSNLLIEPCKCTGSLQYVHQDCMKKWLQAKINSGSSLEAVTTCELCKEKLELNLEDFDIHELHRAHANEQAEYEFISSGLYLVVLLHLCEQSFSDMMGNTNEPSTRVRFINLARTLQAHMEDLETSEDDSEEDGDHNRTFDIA
UniProt Q9H6H4: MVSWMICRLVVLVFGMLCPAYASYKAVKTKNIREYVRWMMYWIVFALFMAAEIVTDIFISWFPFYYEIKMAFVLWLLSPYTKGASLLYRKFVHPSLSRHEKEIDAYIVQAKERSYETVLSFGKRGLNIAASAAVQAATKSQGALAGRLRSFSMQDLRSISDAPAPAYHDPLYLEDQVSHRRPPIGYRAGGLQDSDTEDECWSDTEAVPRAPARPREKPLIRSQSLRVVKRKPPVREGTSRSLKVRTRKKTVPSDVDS
UniProt Q9H8H2: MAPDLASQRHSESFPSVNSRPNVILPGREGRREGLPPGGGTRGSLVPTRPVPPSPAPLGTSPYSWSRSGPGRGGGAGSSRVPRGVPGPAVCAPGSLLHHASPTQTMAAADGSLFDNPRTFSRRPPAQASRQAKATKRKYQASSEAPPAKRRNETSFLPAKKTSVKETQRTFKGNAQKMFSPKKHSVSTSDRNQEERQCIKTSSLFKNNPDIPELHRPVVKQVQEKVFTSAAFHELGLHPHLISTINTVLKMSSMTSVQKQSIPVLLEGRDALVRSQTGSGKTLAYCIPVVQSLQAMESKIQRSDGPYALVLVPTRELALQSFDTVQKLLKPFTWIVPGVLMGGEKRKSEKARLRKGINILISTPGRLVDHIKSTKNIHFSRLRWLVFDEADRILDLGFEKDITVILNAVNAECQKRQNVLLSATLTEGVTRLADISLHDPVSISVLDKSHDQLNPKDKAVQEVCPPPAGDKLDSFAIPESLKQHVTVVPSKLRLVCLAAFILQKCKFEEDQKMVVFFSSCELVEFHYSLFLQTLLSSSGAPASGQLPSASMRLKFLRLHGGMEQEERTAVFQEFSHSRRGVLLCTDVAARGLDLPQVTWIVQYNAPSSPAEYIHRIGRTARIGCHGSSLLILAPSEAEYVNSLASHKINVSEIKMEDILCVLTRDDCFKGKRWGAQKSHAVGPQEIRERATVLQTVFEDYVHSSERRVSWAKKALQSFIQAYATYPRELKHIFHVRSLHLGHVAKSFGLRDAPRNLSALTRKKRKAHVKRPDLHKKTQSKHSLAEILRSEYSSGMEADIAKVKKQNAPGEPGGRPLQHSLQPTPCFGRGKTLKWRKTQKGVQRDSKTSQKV
UniProt Q9H840: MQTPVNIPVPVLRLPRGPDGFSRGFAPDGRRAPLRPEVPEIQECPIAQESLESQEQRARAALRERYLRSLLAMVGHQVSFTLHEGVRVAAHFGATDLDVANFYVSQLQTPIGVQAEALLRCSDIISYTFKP

Compound in the assay: Cc1nc(Nc2ncc(C(=O)Nc3c(C)cccc3Cl)s2)cc(N2CCN(CCO)CC2)n1 [dasatinib]
In words: log2 fold change of tryptic peptide abundance, ligand vs vehicle (limited proteolysis) (log2 ratio); higher = more trypsin-susceptible (destabilized). The note with it: ligand concentration: 5 uM; sample: K562 cleared lysate.
“DHX35 (peptide sequence: SNLAPVILQLK, peptide start residue: 425) (UniProt Q9H5Z1)”: the log2 fold change is -0.573.

As to “NMNAT1 (peptide sequence: NAGVILAPLQR, peptide start residue: 262) (UniProt Q9HAN9)”, the log2 fold change is -0.187.

For the target “ZNF576 (peptide sequence: EHPADFVAQK, peptide start residue: 56) (UniProt Q9H609)”, the log2 fold change came out at 0.0482.

For “MED28 (peptide sequence: QTECFFLQK, peptide start residue: 90) (UniProt Q9H204)”, the log2 fold change is 0.157.

Turning to “UniProt Q9H611 (peptide sequence: RPVEPQAGAEPSTEAPR, peptide start residue: 174)”, the log2 fold change amounted to 0.102.

Turning to “UniProt Q9H8N7 (peptide sequence: DQWCTACR, peptide start residue: 496)”, the log2 fold change is -0.24.

“MRPL46 (peptide sequence: FLGNAPCGHYTFKFPQAMR, peptide start residue: 204) (UniProt Q9H2W6)”: the log2 fold change was -0.155.

“PTGES2 (peptide sequence: AFLDFHALPYQVVEVNPVRR, peptide start residue: 118) (UniProt Q9H7Z7)”: the log2 fold change amounted to 0.147.

Consider “ECT2 (peptide sequence: ALMTSHGSVEGR, peptide start residue: 854) (UniProt Q9H8V3)”, for which the log2 fold change was -0.609.

As for “CDT1 (peptide sequence: SMDTIVGMLHNR, peptide start residue: 199) (UniProt Q9H211)”, the log2 fold change is -0.548.

Turning to “UniProt Q9H8W3 (peptide sequence: ELTQYFGVNDRFDPPVKR, peptide start residue: 129)”, the log2 fold change is -0.147.

As to “CARS2 (peptide sequence: GLTAHGINIK, peptide start residue: 532) (UniProt Q9HA77)”, the log2 fold change is -0.349.

With “UniProt Q9H4K7 (peptide sequence: SGAVLYIR, peptide start residue: 149)”, the log2 fold change is 0.0774.

Regarding “C8orf33 (peptide sequence: AKATLDMPDEEFR, peptide start residue: 213) (UniProt Q9H7E9)”, the log2 fold change was -0.192.

In the case of “TASP1 (peptide sequence: VDTDFMQLK, peptide start residue: 209) (UniProt Q9H6P5)”, the log2 fold change was -0.0555.

Take “UniProt Q9H6A9 (peptide sequence: GELQEEGAVGGAAEETGRR, peptide start residue: 558)”: the log2 fold change was 0.137.

For “UniProt Q9H8G2 (peptide sequence: RSTDSSSVSGSLQQETK, peptide start residue: 88)”, the log2 fold change stood at 0.527.

With “UniProt Q9H8G1 (peptide sequence: YLECDKAFSQSSTLTK, peptide start residue: 515)”, the log2 fold change was -0.131.

As to “MRPL44 (peptide sequence: ELFEMWK, peptide start residue: 227) (UniProt Q9H9J2)”, the log2 fold change was -0.0749.

As for “MLXIP (peptide sequence: AHASAAPPPPR, peptide start residue: 52) (UniProt Q9HAP2)”, the log2 fold change is -0.273.

With “THAP9 (peptide sequence: IGSLLFVK, peptide start residue: 749) (UniProt Q9H5L6)”, the log2 fold change worked out at 0.383.

With “UniProt Q9H816 (peptide sequence: QLFPDLYSK, peptide start residue: 399)”, the log2 fold change was -0.502.

As for “MARCHF7 (peptide sequence: DEAPIISNSER, peptide start residue: 249) (UniProt Q9H992)”, the log2 fold change worked out at 0.3.

Consider “REEP4 (peptide sequence: RGLNIAASAAVQAATK, peptide start residue: 124) (UniProt Q9H6H4)”, for which the log2 fold change was -0.52.

Take “GGNBP2 (peptide sequence: HIHVCCETDFIAHLLGR, peptide start residue: 258) (UniProt Q9H3C7)”: the log2 fold change is -0.267.

Regarding “DDX31 (peptide sequence: CKFEEDQK, peptide start residue: 505) (UniProt Q9H8H2)”, the log2 fold change was found to be 0.368.

For “GEMIN7 (peptide sequence: CSDIISYTFKP, peptide start residue: 121) (UniProt Q9H840)”, the log2 fold change was 0.0705.

(Values after the supplement of paper PMC12819154, “High-throughput peptide-centric local stability assay extends protein–ligand identification to membrane proteins, tissues and bacteria” (Nature Structural & Molecular Biology, 2025).)
